Measurements reported in publication PMC11230511.

Chains of the proteins cited; added tags and fusions are not shown.
UniProt Q12834: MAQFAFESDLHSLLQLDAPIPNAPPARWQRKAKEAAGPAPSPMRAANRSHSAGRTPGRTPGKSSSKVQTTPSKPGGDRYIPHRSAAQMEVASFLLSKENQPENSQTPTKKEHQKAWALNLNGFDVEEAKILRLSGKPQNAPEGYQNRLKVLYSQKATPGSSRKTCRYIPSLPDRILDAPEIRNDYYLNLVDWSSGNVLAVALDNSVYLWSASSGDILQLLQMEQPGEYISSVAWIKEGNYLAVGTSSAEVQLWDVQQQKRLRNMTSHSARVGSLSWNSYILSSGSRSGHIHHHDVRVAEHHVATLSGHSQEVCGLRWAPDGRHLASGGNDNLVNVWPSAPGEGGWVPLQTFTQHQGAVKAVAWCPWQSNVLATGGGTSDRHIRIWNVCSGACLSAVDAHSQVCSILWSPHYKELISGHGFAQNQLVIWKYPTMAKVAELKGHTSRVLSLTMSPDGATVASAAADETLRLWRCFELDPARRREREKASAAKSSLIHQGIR
UniProt P78527: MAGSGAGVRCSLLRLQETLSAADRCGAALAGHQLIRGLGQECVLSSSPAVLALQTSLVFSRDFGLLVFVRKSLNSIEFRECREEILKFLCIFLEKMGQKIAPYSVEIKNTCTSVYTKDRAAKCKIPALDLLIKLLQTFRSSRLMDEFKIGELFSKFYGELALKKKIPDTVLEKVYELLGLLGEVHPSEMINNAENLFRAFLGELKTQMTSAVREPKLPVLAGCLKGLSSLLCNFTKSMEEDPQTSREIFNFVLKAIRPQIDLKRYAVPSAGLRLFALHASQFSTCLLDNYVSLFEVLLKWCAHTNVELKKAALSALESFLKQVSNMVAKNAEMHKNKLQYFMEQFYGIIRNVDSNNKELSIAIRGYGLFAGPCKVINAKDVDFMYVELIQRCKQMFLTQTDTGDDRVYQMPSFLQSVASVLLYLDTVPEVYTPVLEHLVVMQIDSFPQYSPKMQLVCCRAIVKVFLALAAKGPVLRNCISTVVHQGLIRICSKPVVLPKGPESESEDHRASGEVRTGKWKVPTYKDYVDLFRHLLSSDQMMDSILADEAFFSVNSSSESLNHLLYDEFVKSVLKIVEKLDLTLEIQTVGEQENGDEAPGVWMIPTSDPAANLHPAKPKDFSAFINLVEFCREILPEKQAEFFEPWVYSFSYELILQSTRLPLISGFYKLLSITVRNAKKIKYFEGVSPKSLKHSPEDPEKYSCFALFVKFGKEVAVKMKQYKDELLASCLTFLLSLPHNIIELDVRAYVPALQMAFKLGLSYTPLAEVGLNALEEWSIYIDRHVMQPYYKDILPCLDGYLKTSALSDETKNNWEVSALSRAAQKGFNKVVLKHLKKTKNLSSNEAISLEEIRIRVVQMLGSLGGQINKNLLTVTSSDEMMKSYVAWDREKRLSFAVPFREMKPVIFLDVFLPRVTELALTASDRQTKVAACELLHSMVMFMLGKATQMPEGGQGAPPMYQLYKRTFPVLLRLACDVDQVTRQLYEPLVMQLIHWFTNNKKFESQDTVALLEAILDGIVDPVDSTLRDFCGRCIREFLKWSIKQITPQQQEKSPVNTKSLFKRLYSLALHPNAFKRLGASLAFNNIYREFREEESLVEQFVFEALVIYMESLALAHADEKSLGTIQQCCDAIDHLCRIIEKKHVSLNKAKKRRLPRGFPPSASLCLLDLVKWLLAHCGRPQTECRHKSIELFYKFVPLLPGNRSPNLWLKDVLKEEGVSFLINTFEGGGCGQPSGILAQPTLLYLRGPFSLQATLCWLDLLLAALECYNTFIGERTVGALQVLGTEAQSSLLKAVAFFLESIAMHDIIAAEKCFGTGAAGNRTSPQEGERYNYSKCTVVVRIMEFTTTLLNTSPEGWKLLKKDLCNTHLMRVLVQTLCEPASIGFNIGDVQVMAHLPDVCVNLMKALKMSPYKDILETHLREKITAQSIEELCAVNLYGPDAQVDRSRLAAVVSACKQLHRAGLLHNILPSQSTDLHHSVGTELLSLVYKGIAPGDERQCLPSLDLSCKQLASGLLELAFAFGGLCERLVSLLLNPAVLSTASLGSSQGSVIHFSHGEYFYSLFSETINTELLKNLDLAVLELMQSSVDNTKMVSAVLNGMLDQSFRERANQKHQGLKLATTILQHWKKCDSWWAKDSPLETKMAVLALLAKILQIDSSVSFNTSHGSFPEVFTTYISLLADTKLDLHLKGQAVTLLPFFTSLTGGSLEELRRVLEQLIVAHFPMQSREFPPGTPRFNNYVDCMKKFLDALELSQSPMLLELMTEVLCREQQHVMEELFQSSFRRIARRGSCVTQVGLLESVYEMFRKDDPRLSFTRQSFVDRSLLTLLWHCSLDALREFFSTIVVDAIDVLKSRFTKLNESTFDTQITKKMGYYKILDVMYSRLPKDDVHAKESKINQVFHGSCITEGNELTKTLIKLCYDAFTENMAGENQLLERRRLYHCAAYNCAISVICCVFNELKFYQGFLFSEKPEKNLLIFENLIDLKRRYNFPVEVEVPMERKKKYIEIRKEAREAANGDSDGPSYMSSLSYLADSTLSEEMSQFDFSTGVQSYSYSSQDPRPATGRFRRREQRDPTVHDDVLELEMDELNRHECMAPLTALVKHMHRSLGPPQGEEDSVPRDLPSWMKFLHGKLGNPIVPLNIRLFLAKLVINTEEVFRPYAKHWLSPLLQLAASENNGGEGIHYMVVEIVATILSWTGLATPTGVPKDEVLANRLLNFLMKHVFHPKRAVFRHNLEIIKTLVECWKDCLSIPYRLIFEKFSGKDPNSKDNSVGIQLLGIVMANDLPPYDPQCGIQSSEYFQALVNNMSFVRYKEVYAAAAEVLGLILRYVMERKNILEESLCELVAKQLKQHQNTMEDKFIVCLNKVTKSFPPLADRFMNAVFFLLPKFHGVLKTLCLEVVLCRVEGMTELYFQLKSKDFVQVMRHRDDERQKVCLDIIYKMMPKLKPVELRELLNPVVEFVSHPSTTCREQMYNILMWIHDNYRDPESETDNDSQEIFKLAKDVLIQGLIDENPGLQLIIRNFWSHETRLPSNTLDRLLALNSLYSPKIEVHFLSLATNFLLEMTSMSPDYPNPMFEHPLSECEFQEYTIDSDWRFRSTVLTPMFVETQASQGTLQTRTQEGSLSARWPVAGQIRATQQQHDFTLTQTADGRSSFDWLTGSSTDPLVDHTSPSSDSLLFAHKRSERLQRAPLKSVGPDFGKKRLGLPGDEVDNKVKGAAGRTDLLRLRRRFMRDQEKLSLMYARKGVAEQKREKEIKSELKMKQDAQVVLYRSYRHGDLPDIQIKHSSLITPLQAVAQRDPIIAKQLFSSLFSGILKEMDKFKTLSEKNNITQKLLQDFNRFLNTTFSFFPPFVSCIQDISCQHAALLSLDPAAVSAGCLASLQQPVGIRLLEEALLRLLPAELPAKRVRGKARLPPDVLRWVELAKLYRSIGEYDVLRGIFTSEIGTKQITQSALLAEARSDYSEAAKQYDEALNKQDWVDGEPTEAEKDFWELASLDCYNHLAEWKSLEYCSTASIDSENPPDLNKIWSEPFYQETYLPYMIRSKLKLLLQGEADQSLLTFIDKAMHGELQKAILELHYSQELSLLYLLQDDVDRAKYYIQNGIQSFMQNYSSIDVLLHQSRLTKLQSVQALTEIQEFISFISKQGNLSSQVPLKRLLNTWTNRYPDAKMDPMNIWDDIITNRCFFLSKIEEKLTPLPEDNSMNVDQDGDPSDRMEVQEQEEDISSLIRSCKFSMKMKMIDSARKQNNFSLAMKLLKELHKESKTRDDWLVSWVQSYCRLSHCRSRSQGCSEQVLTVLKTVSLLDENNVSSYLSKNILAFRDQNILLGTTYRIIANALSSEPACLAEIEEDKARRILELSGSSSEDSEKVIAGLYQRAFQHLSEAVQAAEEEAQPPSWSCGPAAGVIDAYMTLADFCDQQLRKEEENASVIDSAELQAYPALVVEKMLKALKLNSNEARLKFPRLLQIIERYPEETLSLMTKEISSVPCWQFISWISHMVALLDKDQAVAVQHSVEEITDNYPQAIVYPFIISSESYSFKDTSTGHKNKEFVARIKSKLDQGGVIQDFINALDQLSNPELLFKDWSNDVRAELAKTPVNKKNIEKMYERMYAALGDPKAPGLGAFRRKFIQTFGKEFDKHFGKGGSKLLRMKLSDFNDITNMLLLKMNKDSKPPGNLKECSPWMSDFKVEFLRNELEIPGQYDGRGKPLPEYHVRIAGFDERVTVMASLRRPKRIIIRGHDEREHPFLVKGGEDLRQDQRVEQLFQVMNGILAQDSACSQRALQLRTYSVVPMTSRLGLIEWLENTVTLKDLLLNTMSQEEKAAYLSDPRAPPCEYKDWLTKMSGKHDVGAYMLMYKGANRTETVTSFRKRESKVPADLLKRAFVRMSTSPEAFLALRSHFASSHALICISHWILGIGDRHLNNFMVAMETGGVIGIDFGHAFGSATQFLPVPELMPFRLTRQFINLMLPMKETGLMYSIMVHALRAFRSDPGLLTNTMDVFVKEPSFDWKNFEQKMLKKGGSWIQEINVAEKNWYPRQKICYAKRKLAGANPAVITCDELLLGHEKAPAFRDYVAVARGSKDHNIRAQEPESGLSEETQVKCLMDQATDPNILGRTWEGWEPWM
UniProt Q9NXR7: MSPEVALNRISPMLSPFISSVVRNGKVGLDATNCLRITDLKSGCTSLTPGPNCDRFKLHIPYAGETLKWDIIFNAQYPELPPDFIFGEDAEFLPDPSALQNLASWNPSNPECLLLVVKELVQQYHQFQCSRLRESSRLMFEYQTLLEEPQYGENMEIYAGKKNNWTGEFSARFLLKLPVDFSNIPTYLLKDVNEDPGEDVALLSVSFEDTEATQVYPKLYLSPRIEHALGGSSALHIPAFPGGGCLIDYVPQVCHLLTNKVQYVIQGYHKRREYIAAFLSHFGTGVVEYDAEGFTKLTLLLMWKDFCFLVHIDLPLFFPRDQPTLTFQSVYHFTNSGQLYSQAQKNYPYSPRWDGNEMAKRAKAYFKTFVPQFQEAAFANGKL

B1: FLCN interacting protein 1 (FNIP1) (protein, UniProt Q8TF40 1-1166)
chain: MAPTLFQKLFSKRTGLGAPGRDARDPDCGFSWPLPEFDPSQIRLIVYQDCERRGRNVLFDSSVKRRNEDISVSKLGSDAQVKVFGKCCQLKPGGDSSSSLDSSVTSSSDIKDQCLKYQGSRCSSDANMLGEMMFGSVAMSYKGSTLKIHQIRSPPQLMLSKVFTARTGSSICGSLNTLQDSLEFINQDNNTLKADNNTVINGLLGNIGLSQFCSPRRAFSEQGPLRLIRSASFFAVHSNPMDMPGRELNEDRDSGIARSASLSSLLITPFPSPNSSLTRSCASSYQRRWRRSQTTSLENGVFPRWSIEESFNLSDESCGPNPGIVRKKKIAIGVIFSLSKDEDENNKFNEFFFSHFPLFESHMNKLKSAIEQAMKMSRRSADASQRSLAYNRIVDALNEFRTTICNLYTMPRIGEPVWLTMMSGTPEKNHLCYRFMKEFTFLMENASKNQFLPALITAVLTNHLAWVPTVMPNGQPPIKIFLEKHSSQSVDMLAKTHPYNPLWAQLGDLYGAIGSPVRLARTVVVGKRQDMVQRLLYFLTYFIRCSELQETHLLENGEDEAIVMPGTVITTTLEKGEIEESEYVLVTMHRNKSSLLFKESEEIRTPNCNCKYCSHPLLGQNVENISQQEREDIQNSSKELLGISDECQMISPSDCQEENAVDVKQYRDKLRTCFDAKLETVVCTGSVPVDKCALSESGLESTEETWQSEKLLDSDSHTGKAMRSTGMVVEKKPPDKIVPASFSCEAAQTKVTFLIGDSMSPDSDTELRSQAVVDQITRHHTKPLKEERGAIDQHQETKQTTKDQSGESDTQNMVSEEPCELPCWNHSDPESMSLFDEYFNDDSIETRTIDDVPFKTSTDSKDHCCMLEFSKILCTKNNKQNNEFCKCIETVPQDSCKTCFPQQDQRDTLSILVPHGDKESSDKKIAVGTEWDIPRNESSDSALGDSESEDTGHDMTRQVSSYYGGEQEDWAEEDEIPFPGSKLIEVSAVQPNIANFGRSLLGGYCSSYVPDFVLQGIGSDERFRQCLMSDLSHAVQHPVLDEPIAEAVCIIADMDKWTVQVASSQRRVTDNKLGKEVLVSSLVSNLLHSTLQLYKHNLSPNFCVMHLEDRLQELYFKSKMLSEYLRGQMRVHVKELGVVLGIESSDLPLLAAVASTHSPYVAQILL
B2: co-chaperone CDC37 (protein, UniProt Q16543 1-378)
chain: MVDYSVWDHIEVSDDEDETHPNIDTASLFRWRHQARVERMEQFQKEKEELDRGCRECKRKVAECQRKLKELEVAEGGKAELERLQAEAQQLRKEERSWEQKLEEMRKKEKSMPWNVDTLSKDGFSKSMVNTKPEKTEEDSEEVREQKHKTFVEKYEKQIKHFGMLRRWDDSQKYLSDNVHLVCEETANYLVIWCIDLEVEEKCALMEQVAHQTIVMQFILELAKSLKVDPRACFRQFFTKIKTADRQYMEGFNDELEAFKERVRGRAKLRIEKAMKEYEEEERKKRLGPGGLDPVEVYESLPEELQKCFDVKDVQMLQDAISKMDPTDAKYHMQRCIDSGLWVPNSKASEAKEGEEAGPGDPLLEAVPKTGDEKDVSV

Target: T1, GST-tagged FLCN (folliculin) (human) (UniProt Q8NFG4)
T1 sequence: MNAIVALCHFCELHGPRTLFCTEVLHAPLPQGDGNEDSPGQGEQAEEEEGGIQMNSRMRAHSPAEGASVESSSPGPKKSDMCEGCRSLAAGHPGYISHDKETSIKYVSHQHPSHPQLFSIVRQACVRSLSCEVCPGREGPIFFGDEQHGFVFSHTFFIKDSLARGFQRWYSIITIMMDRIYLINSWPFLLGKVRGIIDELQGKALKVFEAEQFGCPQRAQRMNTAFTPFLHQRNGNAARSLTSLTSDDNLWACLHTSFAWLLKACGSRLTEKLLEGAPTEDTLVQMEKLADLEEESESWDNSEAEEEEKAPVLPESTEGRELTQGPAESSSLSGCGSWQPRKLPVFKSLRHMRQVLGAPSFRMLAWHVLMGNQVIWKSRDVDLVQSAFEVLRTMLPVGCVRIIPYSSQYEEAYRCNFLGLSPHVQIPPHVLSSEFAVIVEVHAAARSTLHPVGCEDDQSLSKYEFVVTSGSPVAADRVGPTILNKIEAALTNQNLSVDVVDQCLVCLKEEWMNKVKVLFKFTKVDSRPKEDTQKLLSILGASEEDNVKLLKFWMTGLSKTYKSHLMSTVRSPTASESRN
Test: affinity purification with mass spectrometry; GST-FLCN overexpressed in HEK293 cells, purified on glutathione-Sepharose beads, bound proteins separated by SDS-PAGE, gel sectioned, LC-MS/MS

binding, binds:
CDC20 (from UniProt Q12834 1-499)
TP53 (from UniProt P04637 1-393)
DNA-dependent protein kinase catalytic subunit (DNA-PKcs) (from UniProt P78527 1-4128) (enzyme)
BRCA1 A complex component, BRE (from UniProt Q9NXR7 1-383)
B1
B2

Results are given in words; binding and its absence hold for the method and conditions named. Binding seen in cells or lysates may run through a third protein. Here binding means that the protein was enriched with, or labelled near, the bait; the list need not be complete. Sequences can lack the tags named with a protein.
